These are yes or no findings as the source states them, for the method shown. Binding can be weak; no strength is given.
Key:
[1] = target: His peptide-tagged soluble cynoADAM9 (cynoADAM9-His) (cynomolgus monkey); assay: ELISA, cynoADAM9-His (1 µg/mL) captured by anti-His antibody
[2] = target: His peptide-tagged soluble cynoADAM9 (cynoADAM9-His) (cynomolgus monkey); assay: ELISA: His-tagged soluble cynoADAM9 (1 µg/mL) captured by plate-coated anti-His antibody; serial dilutions of antibody 0.03-1 µg/ml; readout RLU

Binder | binding [1] | binding [2]
hMAB-A (2B.2) (antibody, V domains shown) VH: EVQLVESGGGLVKPGGSLRLSCAASGFTFSSYWMHWVRQAPGKGLEWVGEIIPIFGHTNYNEKFKSRFTISLDNSKNTLYLQMGSLRAEDTAVYYCARGGYYYYIGKGVLDYWGQGTTVTVSS VL: DIVMTQSPDSLAVSLGERATISCKASQSVDYSGDSYMNWYQQKPGQPPKLLIYAASDLESGIPARFSGSGSGTDFTLTISSLEPEDFATYYCQQSHEDPFTFGQGTKLEIK | binds | binds
hMAB-A (2D.2) (antibody, V domains shown) VH: EVQLVESGGGLVKPGGSLRLSCAASGFTFSSYWMHWVRQAPGKGLEWVGEIIPIFGHTNYNEKFKSRFTISLDNSKNTLYLQMGSLRAEDTAVYYCARGGYYYYTGKGVLDYWGQGTTVTVSS VL: DIVMTQSPDSLAVSLGERATISCKASQSVDYSGDSYMNWYQQKPGQPPKLLIYAASDLESGIPARFSGSGSGTDFTLTISSLEPEDFATYYCQQSHEDPFTFGQGTKLEIK | binds | binds
hMAB-A (2F.2) (antibody, V domains shown) VH: EVQLVESGGGLVKPGGSLRLSCAASGFTFSSYWMHWVRQAPGKGLEWVGEIIPIFGHTNYNEKFKSRFTISLDNSKNTLYLQMGSLRAEDTAVYYCARGGYYYYFHSGTLDYWGQGTTVTVSS VL: DIVMTQSPDSLAVSLGERATISCKASQSVDYSGDSYMNWYQQKPGQPPKLLIYAASDLESGIPARFSGSGSGTDFTLTISSLEPEDFATYYCQQSHEDPFTFGQGTKLEIK | binds | binds
hMAB-A (2A.2) (antibody, V domains shown) VH: EVQLVESGGGLVKPGGSLRLSCAASGFTFSSYWMHWVRQAPGKGLEWVGEIIPIFGHTNYNEKFKSRFTISLDNSKNTLYLQMGSLRAEDTAVYYCARGGYYYYFNSGTLDYWGQGTTVTVSS VL: DIVMTQSPDSLAVSLGERATISCKASQSVDYSGDSYMNWYQQKPGQPPKLLIYAASDLESGIPARFSGSGSGTDFTLTISSLEPEDFATYYCQQSHEDPFTFGQGTKLEIK | binds | binds
hMAB-A (2J.2) (antibody, V domains shown) VH: EVQLVESGGGLVKPGGSLRLSCAASGFTFSSYWMHWVRQAPGKGLEWVGEIIPIFGHTNYNEKFKSRFTISLDNSKNTLYLQMGSLRAEDTAVYYCARGGYYYYYNSGTLDYWGQGTTVTVSS VL: DIVMTQSPDSLAVSLGERATISCKASQSVDYSGDSYMNWYQQKPGQPPKLLIYAASDLESGIPARFSGSGSGTDFTLTISSLEPEDFATYYCQQSHEDPFTFGQGTKLEIK | binds | binds
hMAB-A (2G.2) (antibody, V domains shown) VH: EVQLVESGGGLVKPGGSLRLSCAASGFTFSSYWMHWVRQAPGKGLEWVGEIIPIFGHTNYNEKFKSRFTISLDNSKNTLYLQMGSLRAEDTAVYYCARGGYYYYFNKAVLDYWGQGTTVTVSS VL: DIVMTQSPDSLAVSLGERATISCKASQSVDYSGDSYMNWYQQKPGQPPKLLIYAASDLESGIPARFSGSGSGTDFTLTISSLEPEDFATYYCQQSHEDPFTFGQGTKLEIK | binds | binds
hMAB-A (2E.2) (antibody, V domains shown) VH: EVQLVESGGGLVKPGGSLRLSCAASGFTFSSYWMHWVRQAPGKGLEWVGEIIPIFGHTNYNEKFKSRFTISLDNSKNTLYLQMGSLRAEDTAVYYCARGGYYYYDSNAVLDYWGQGTTVTVSS VL: DIVMTQSPDSLAVSLGERATISCKASQSVDYSGDSYMNWYQQKPGQPPKLLIYAASDLESGIPARFSGSGSGTDFTLTISSLEPEDFATYYCQQSHEDPFTFGQGTKLEIK | binds | binds
hMAB-A (2H.2) (antibody, V domains shown) VH: EVQLVESGGGLVKPGGSLRLSCAASGFTFSSYWMHWVRQAPGKGLEWVGEIIPIFGHTNYNEKFKSRFTISLDNSKNTLYLQMGSLRAEDTAVYYCARGGYYYYGGSGVLDYWGQGTTVTVSS VL: DIVMTQSPDSLAVSLGERATISCKASQSVDYSGDSYMNWYQQKPGQPPKLLIYAASDLESGIPARFSGSGSGTDFTLTISSLEPEDFATYYCQQSHEDPFTFGQGTKLEIK | binds | binds

From patent US20210388102A1
